Our source for the AC50 values is PubChem BioAssay AID1487 (National Center for Advancing Translational Sciences (NCATS), 2009).

This assay can be described thus: qHTS Assay for Modulators of Lamin A Splicing. Conditions: HeLa LMNA splicing GFP/RFP minigene ratio, 48 h. Summed up:
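Read-out is the ratio of GFP to DsRed2 object intensity, acquired by 488 nm laser-scanning cytometry on HeLa lamin A-EGFP minigene reporter cells. Compound incubation 48 hrs at 37 °C in Opti-MEM with 2% FBS; DMSO 0.5% final.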

Setting [1] is: measured here: GFP splicing reporter channel.
[2] abbreviates: measured here: RFP viability control channel.

Molecules are shown by their SMILES. Where “and” joins values, the source holds several entries; their conditions need not be identical. Equal entries are not always repeated. Some of the results follow. These are further read-outs of the screen, such as a control signal, another cell line or another target. No call is given for them. Most of these compounds were active or inconclusive in the main read-out, so they are no random draw. The note in brackets gives the kind of curve behind each potency; many fits are weak.

`CCOc1ccc(C2c3[nH]c4ccccc4c3CCN2C(=O)CCC2CCCC2)cc1` (stereo not drawn): under setting [1], the concentration at half-maximal activity (AC50) was 3.98 µM [falling, full curve, poor fit].

On to `CCN(CCCNC(=O)CN1N=C(c2ccc(C)cc2)CCC1=O)c1ccccc1`, for which the AC50 under setting [1] is 11.2 µM [falling, partial curve, poor fit].

Turning to `CCCn1nnnc1NC(=O)c1ccc2ccccc2c1`, under setting [2], the AC50 was 8.91 µM [rising, partial curve].

On to `Cc1ccn2c(=O)c(NC(=O)c3cccc([N+](=O)[O-])c3C)c(C)nc2c1`, for which the half-maximal activity concentration (AC50) is 35.5 µM [rising, single point] under setting [1] and 35.5 µM [rising, single point] under setting [2].

For the compound `CC(C)(C)C(=O)Nc1nnc(CSCc2ccccc2F)s1`, the AC50 under setting [2] is 35.5 µM [rising, single point].

Turning to `O=C(c1cc(N2C(=O)C3C4CCC(C4)C3C2=O)ccc1Cl)N1CCN(c2ccc(F)cc2)CC1` (stereo not drawn), the concentration at half-maximal activity (AC50) by setting is: under setting [1], 35.5 µM [rising, single point]; under setting [2], 35.5 µM [rising, single point].

Consider `CN1CCC(=C2c3ccccc3CC(=O)c3sccc32)CC1`, for which the concentration at half-maximal activity (AC50) is, setting by setting: under setting [1], 2 µM [falling, single point] and 35.5 µM [falling, single point]; under setting [2], 3.16 µM [falling, single point] and 2 nM [falling, full curve, poor fit] and 35.5 µM [rising, single point].

`COC(=O)COc1ccc(S(=O)(=O)Nc2ccc3c(c2)OCO3)cc1Cl`: the AC50 under setting [2] was 17.8 µM [rising, single point].

For the compound `CCCN1CCN(C(=S)Nc2ccccc2C(F)(F)F)CC1`, the concentration at half-maximal activity (AC50) under setting [2] is 17.8 µM [rising, partial curve, poor fit].

For the compound `COc1ccccc1NC(=O)Cc1nc(CCl)cs1`, the AC50 under setting [2] was 11.2 µM [rising, single point].

For `CC(=O)N(Cc1ccc(Br)cc1)c1cccc(C)c1C`, under setting [2], the concentration at half-maximal activity (AC50) is 22.4 µM [rising, single point].

With `CC(=O)Nc1ccc(N(C(=O)CNC(=O)c2cccs2)C(C(=O)NC(C)(C)C)c2ccccc2)cc1` (stereo not drawn), under setting [2], the concentration at half-maximal activity (AC50) was 0.1 µM [falling, full curve].

Regarding `Nc1nc2ccccc2n1C(=O)CCc1ccccc1`, the AC50 under setting [2] is 2.24 µM [rising, full curve].

Consider `O=C(CCC(=O)NCCCc1ccccc1)NCCCc1ccccc1`, for which the AC50 under setting [1] is 0.00501 µM [falling, full curve, poor fit].

Regarding `COC(=O)c1cn(NC(=O)c2ccc([N+](=O)[O-])c(C)c2)c(=O)c2ccccc12`, under setting [1], the concentration at half-maximal activity (AC50) was 35.5 µM [falling, partial curve, poor fit].

For the compound `COc1cccc(-c2cncnc2NCCN2CCOCC2)c1`, the AC50 is 25.1 µM [falling, single point] under setting [1] and 17.8 µM [falling, single point] under setting [2].

Take `O=C(Cc1ccc(F)cc1)NCCc1csc2nc(-c3ccc(Cl)cc3)nn12`: the AC50 runs as follows: under setting [1], 0.398 µM [rising, full curve]; under setting [2], 0.447 µM [rising, full curve, poor fit].

As to `COCCn1c(=S)[nH]c2cc(C(=O)N3CCc4ccccc43)ccc2c1=O`, the AC50 under setting [2] was 12.6 µM [rising, partial curve].

As for `COc1c(OC(C)=O)ccc(/C=C/c2ccc3cccc(OCc4ccccc4)c3n2)c1[N+](=O)[O-]`, the AC50 is, setting by setting: under setting [1], 22.4 µM [falling, partial curve, poor fit]; under setting [2], 22.4 µM [falling, single point].

With `CCOC(=O)c1c(C)[nH]c(C(=O)OCC(=O)NC(C)C)c1C`, the AC50 under setting [2] was 12.6 µM [rising, partial curve].

Take `O=C(c1ccc(Cl)c(S(=O)(=O)N2CCCC2)c1)N1CCN(c2ccc(F)cc2)CC1`: under setting [1], the AC50 is 22.4 µM [falling, single point].

Take `COc1ccc(C(=O)c2no[n+]([O-])c2C(=O)c2ccc(OC)cc2)cc1`: the concentration at half-maximal activity (AC50) under setting [2] is 28.2 µM [falling, single point].

Take `CCOC(=O)C1(Cc2ccc(OC)cc2)CCN(C(=O)c2ccc3[nH]ccc3c2)CC1`: under setting [2], the concentration at half-maximal activity (AC50) was 0.00355 µM [falling, full curve, poor fit].

On to `CCC(C)NS(=O)(=O)c1ccc(S(=O)(=O)N(CC(=O)Nc2ccccc2)Cc2ccco2)cc1` (stereo not drawn), for which the AC50 under setting [1] is 12.6 µM [rising, partial curve] and the concentration at half-maximal activity (AC50) under setting [2] is 22.4 µM [rising, single point].

Take `CCC(C(=O)OCC(=O)Nc1cc(Cl)cc(Cl)c1)c1ccccc1` (stereo not drawn): the half-maximal activity concentration (AC50) under setting [1] was 22.4 µM [rising, single point].

As to `O=C(NC(=S)Nc1ccc(N2CCOCC2)c(Cl)c1)c1cncc(Br)c1`, under setting [1], the AC50 was 1.41 µM [rising, full curve, poor fit].

Regarding `CCn1cnc2cc(NCc3ccc(N(C)C)cc3)ccc21`, the AC50 under setting [2] is 35.5 µM [falling, partial curve].

For `O=S(=O)(NCc1ccccn1)c1ccc(Cl)c(C(F)(F)F)c1`, the AC50 is 0.355 µM [falling, full curve, poor fit] under setting [1] and 0.2 µM [falling, full curve, poor fit] under setting [2].

With `COCCNC(=S)N/N=C1\CC(C)CC(C)(C)C1` (stereo not drawn), the AC50 under setting [1] is 14.1 µM [rising, single point].

In the case of `CC(=O)Nc1ccc(NC(=O)CSc2nc(C)nc3sc(C)c(C)c23)cc1`, the half-maximal activity concentration (AC50) is, setting by setting: under setting [1], 0.00447 µM [rising, full curve, poor fit]; under setting [2], 1.12 µM [rising, partial curve, poor fit].

As for `Cc1ccc(C(=O)NCC(=O)OCC(=O)Nc2ccccc2[N+](=O)[O-])cc1`, under setting [2], the AC50 is 10 µM [falling, partial curve, poor fit].

For the compound `CCCCCCCCCCCCOS(=O)(=O)O`, under setting [2], the AC50 was 0.000891 µM [falling, full curve, poor fit].

Consider `O=C(Oc1ccc2c(c1)OCO2)c1ccncc1`, for which the AC50 is 0.00447 µM [rising, full curve, poor fit] under setting [1] and 0.01 µM [rising, full curve, poor fit] under setting [2].

Regarding `O=C(CCl)Nc1c[nH]c(=O)[nH]c1=O`, the AC50 under setting [2] is 20 µM [rising, single point].

In the case of `C[C@@]12C=CC(=O)C=C1CCC1C3CC(O)[C@@](O)(C(=O)CO)[C@]3(C)CC(O)[C@]12F` (stereo partly drawn), under setting [2], the concentration at half-maximal activity (AC50) is 3.16 µM [rising, single point].

As for `COc1ccc(NC(=O)C(=O)NCCc2csc3nc(-c4ccccc4C)nn23)cc1`, the half-maximal activity concentration (AC50) reads like this: under setting [1], 15.8 µM [falling, single point]; under setting [2], 22.4 µM [falling, partial curve, poor fit].

`CCOc1ccc2c(c1)OC(c1ccc(C)cc1)(C(F)(F)F)NC2=O` (stereo not drawn): the concentration at half-maximal activity (AC50) is, setting by setting: under setting [1], 5.62 µM [rising, single point]; under setting [2], 5.62 µM [rising, single point].

Regarding `C/C(=N\NC(=O)CNc1cccc(C(F)(F)F)c1)c1ccc(Br)cc1`, under setting [2], the concentration at half-maximal activity (AC50) was 0.00316 µM [falling, full curve, poor fit].

As for `Cc1ccc(CSc2nc3cccnc3n2Cc2nc(-c3ccccc3F)oc2C)cc1`, the concentration at half-maximal activity (AC50) runs as follows: under setting [1], 35.5 µM [falling, single point]; under setting [2], 0.316 µM [rising, single point].

Consider `Cc1cccc(Cc2c(C)nc3c(C(=O)N4CCN(Cc5ccc6c(c5)OCO6)CC4)cnn3c2C)c1`, for which the AC50 is 0.501 µM [falling, partial curve, poor fit] under setting [1] and 7.94 µM [falling, partial curve, poor fit] under setting [2].

Take `Cc1ccc(NC(=O)COC(=O)CCc2nc3ccccc3c(=O)[nH]2)c(Br)c1`: the AC50 under setting [1] was 0.00447 µM [falling, full curve, poor fit] and the AC50 under setting [2] is 0.00794 µM [falling, full curve, poor fit].

Take `COc1cccc(/C=N/NC(=O)c2[nH]nc3c2CCc2ccccc2-3)c1O`: the AC50 is 35.5 µM [falling, single point] under setting [1] and 3.98 µM [rising, single point] under setting [2].

As to `CC(C)Cn1nnc2c(=O)oc3ccccc3c21`, the AC50 under setting [1] was 22.4 µM [falling, single point] and the concentration at half-maximal activity (AC50) under setting [2] was 35.5 µM [falling, single point].

Take `CCCN(CCC)C(=O)C(CCC(=O)O)NC(=O)c1ccccc1` (stereo not drawn): the AC50 under setting [2] is 0.501 µM [falling, full curve].

Consider `Cc1cc(C)c(S(=O)(=O)Nc2ccc(-c3ccc(N4CCCCC4)nn3)cc2)cc1C`, for which the half-maximal activity concentration (AC50) under setting [1] was 2 µM [falling, full curve, poor fit].

On to `O=C(c1ccc2c3c(cccc13)CC2)C1CCCN(C(=O)c2ccc(=O)[nH]c2)C1` (stereo not drawn), for which the half-maximal activity concentration (AC50) runs as follows: under setting [1], 8.91 µM [falling, partial curve, poor fit]; under setting [2], 2.51 µM [falling, full curve, poor fit].

Take `O=C(Nc1ccc(N2CCN(C(=O)c3ccco3)CC2)cc1)c1ccccc1F`: under setting [2], the AC50 is 35.5 µM [rising, single point].

As to `COc1ccc(N(C(=O)CNC(=O)c2cccs2)C(C(=O)NCC2CCCO2)c2ccccc2)cc1` (stereo not drawn), the half-maximal activity concentration (AC50) was 11.2 µM [falling, partial curve, poor fit] under setting [1] and 11.2 µM [falling, single point] under setting [2].

`CCOC(=O)c1sc(NC(=O)COC(=O)CNC(=O)c2ccco2)c(C(=O)OCC)c1C`: under setting [2], the concentration at half-maximal activity (AC50) was 14.1 µM [rising, single point].

Turning to `O=C(c1ccc(Cl)c(Cl)c1)N(Cc1ccco1)c1ccc(O)cc1`, under setting [2], the AC50 was 22.4 µM [rising, single point].

For `Cc1ccc(Cn2c(Cc3ccccc3)nc3ccccc32)cc1`, the half-maximal activity concentration (AC50) runs as follows: under setting [1], 5.01 µM [rising, partial curve]; under setting [2], 11.2 µM [rising, partial curve].

Consider `CCOC(=O)C1=C(C)NC(C)=C(C(=O)OCC)C1c1ccc(OC)cc1`, for which the AC50 under setting [2] was 11.2 µM [rising, partial curve].

As for `CC(C)CC(=O)N=C1SC2CS(=O)(=O)CC2N1Cc1ccccc1` (stereo not drawn), the AC50 under setting [1] is 3.55 µM [rising, partial curve, poor fit].
